Results are given in words; binding and its absence hold for the method and conditions named. In cells and extracts the contact can be indirect.

Amino acid sequences for entries named in this document (tags omitted).
UniProt Q9NXR5: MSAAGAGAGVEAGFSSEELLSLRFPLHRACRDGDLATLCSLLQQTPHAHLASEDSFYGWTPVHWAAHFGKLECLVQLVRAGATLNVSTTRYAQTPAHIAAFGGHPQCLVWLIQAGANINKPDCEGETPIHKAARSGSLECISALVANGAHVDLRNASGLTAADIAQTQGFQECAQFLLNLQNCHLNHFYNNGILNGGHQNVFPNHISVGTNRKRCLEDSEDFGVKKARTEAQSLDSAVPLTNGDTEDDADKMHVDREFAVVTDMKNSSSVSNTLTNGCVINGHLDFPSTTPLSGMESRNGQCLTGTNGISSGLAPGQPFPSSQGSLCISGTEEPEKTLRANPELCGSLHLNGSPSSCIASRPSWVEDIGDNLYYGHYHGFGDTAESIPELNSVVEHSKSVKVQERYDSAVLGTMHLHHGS
UniProt P01106: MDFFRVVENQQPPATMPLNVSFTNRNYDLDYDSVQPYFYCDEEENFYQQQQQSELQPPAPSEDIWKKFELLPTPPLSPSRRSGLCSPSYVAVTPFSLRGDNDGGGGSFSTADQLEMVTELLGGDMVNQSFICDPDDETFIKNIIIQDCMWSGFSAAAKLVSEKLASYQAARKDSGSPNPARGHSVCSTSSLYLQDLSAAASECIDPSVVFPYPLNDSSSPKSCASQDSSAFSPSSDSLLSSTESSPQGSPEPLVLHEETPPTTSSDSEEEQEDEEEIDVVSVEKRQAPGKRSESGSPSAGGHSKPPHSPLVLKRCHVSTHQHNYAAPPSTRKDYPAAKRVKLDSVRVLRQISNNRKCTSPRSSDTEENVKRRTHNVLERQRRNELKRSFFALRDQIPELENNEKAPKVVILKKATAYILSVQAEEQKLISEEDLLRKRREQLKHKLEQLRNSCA

The assay deals with Flag-ANKRD10-1 (UniProt Q9NXR5). The assay can be described thus: co-IP; 293T cells transfected with HA-MYC and Flag-ANKRD10-1 or Flag-ANKRD10-2 plasmids for 48 h; IP with anti-FLAG or anti-HA antibodies, protein A/G magnetic beads, 12 h at 4 °C, Western blot. A general note: Immunoblotting shows a protein as a band on a membrane.

HA-MYC (from UniProt P01106 1-454): the binding result is “no binding”.

For the origin of these results see PMC11882939.
